Assay results published in the supplement of paper PMC4635364.
The other results are listed elsewhere or left out. This data set is noisy: repeats of one test often differ as much as different tests do.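 Cells: ReNCell VM human fetal ventral-midbrain neural progenitors, differentiated mitogen-free. Blinded raters compared doublecortin-stained (early neurons) or tyrosine hydroxylase-stained (dopaminergic neurons) images with untreated wells, where 0 means no change. After repeats and both raters were averaged, compounds scoring 2 or above became hits for retesting.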

System: ReNCell VM
Test: dopaminergic neuron differentiation score (TH+ cell fraction vs untreated, manual image score) (score (0 to 3)); higher = more TH+ dopaminergic neuron differentiation
Conditions: library: Prestwick; 2 uM; 4 weeks; BDNF 10 ng/ml + GDNF 10 ng/ml

Dopaminergic neuron differentiation score, inactive:
C[C@@H]1C[C@H]2[C@@H]3C[C@H](F)C4=CC(=O)C=C[C@]4(C)[C@@]3(Cl)[C@@H](O)C[C@]2(C)[C@H]1C(=O)COC(=O)C(C)(C)C [Clocortolone pivalate] 0
O=C(O)Cc1cc(I)c(Oc2ccc(O)c(I)c2)c(I)c1 [Tiratricol, 3,3',5-triiodothyroacetic acid] 0
NCCCCCC(=O)O [Aminocaproic acid] 0
CC(C(=O)O)c1ccc2c(c1)Cc1cccnc1O2 (centres undefined) [Pranoprofen] 1
CCCc1cc(C(N)=S)ccn1 [Prothionamide] 0

Same assay, conditions: library: Spectrum; 2 uM; 4 weeks; BDNF 10 ng/ml + GDNF 10 ng/ml

Dopaminergic neuron differentiation score, inactive:
OC(Cn1cncn1)(Cn1cncn1)c1ccc(F)cc1F 0
C=C(C)[C@@H]1CC[C@]2(CO)CC[C@]3(C)[C@H](CC[C@@H]4[C@@]5(C)CC[C@H](O)C(C)(C)[C@@H]5CC[C@]43C)[C@@H]12 0
O=c1cc(-c2ccccc2)oc2cc(O)ccc12 0
CCCCCCCCCC(=O)N[C@@H](Cc1c[nH]c2ccccc12)C(=O)N[C@@H](CC(N)=O)C(=O)N[C@@H](CC(=O)O)C(=O)N[C@@H]1C(=O)NCC(=O)N[C@@H](CCCN)C(=O)N[C@@H](CC(=O)O)C(=O)N[C@H](C)C(=O)N[C@@H](CC(=O)O)C(=O)NCC(=O)N[C@H](CO)C(=O)N[C@@H]([C@H](C)CC(=O)O)C(=O)N[C@@H](CC(=O)c2ccccc2N)C(=O)O[C@@H]1C [DAPTOMYCIN (5 millimolar/DMSO)] 0
